Data as given in paper PMC11654669.
These are yes or no findings as the source states them, for the method shown.

Biological target: Plasmodium falciparum Niemann-Pick type C1-related protein (PfNCR1) transporter (P. falciparum) (UniProt Q8I266)
Assay: cryo-EM structure; single-particle cryo-EM of purified PfNCR1 in GDN detergent micelles, 7 mg/ml; 20 mM tris-HCl (pH 7.5), 100 mM NaCl, 0.005% GDN; both purified

binding: no binding
B1: Plasmodium falciparum Niemann-Pick type C1-related protein (PfNCR1) transporter (protein, UniProt Q8I266 1-1470)
chain: MFVKNFIHKLKELKQKSLDKFANLLYDYGGYVYDRPCTFIICSLICCLLLTCGFYFKEHEKDIYKLYSISNSYAYETNETINDFFYKSRRCFILVESNVNLLKPKILRELQKFEEGTKDIEVDLSEINECKTNSELPPEQSHVAKELYKTLIQRSEENLKSGKINGSLFDYSDLDENGKSVLSLAGKENNDDTLIEGDNKNDEETSANNNNNEDDNNEDDNNEDDNNEDDNNENDNNNNNEDDNNNDDDDDEDNEEEDEEKQKSLREKLYRKIYEMLKKKKENIVLDENNPNVNFTDYKDDVFYPYQYIPPMLIKADRCKLQNVFGDKNLNIDLREASDGLKKQITYTLEDICEKKYGDCNFSSLFLYYEKGNGYIDYPIKVDNLDFYVNRRTYKEMMFKGILGNMVYEKSGSKYIIKSANAIMTVIPLLNSHTYEPYALAYEKKLIDYVRFYNLDDIIQDEETNDDNDPFIRFHVFTDRSLEDEVDRISKIDNLTRLLLLIGVLLIFMYALFNNVTSVLYRSKPLCAVMGIFCGFLGFLSGSGFLYFLGVKSVPPAETVPFLVIGVGVDDVFVILNSYSLLFMVKDNKKRIQMCLKDSALAITVTTLTNIIAFLISAISPFYSICAFSLFTASSLFFGYLMVLTFLLSFLCIEAKLEKKKRNIFTGTFHLFRSIFMKSSKKNKKENKENNIHDDGDNDNDEKKKDLSLEVKNNEDDYENISIYEWIHNLYLFEESINKKKKNAALVYASNNGMSSNLNNVNEDGFPNPSKIVSMEDVKKRNIKKDDAYINKEDEEGGGYYNKDDNKKKDILGKKQKKNNNNVTLVSKKGEDNELDVYYENLDEKTNDKYKMNNIKSSKLKYDNDKKDGAIINNRPSSDEEYKEEKDKNKINILNDVFNDITIKPNENILLDRGDVIKSSGYDSSYNDLQSSSLPNPSSNEVLNKTTMVYNETDLKDNKKEIKSSKKNVKDIKKSDMIHDDTYDIINSNNKNILLSSNEINNNSNNTNKFNNNSTELATKDTQQFINGHDKNIYLLSSHDNALFYKYIYEEPKGNIGKYFRSLVKNYYVPFLSSRFGKTIVYIMFTIIIAMSIYGCTLMKKGIKYDKAFPVDSYVRRFTTAKIKYFPDFGDFIEVYYFDKHFINKYRGLEKNTKEAASSFLYSDLTDRQIMNSPKINKNVHWENTNLQEELINMHNTLESQEFVTSVANGFTFFLNKNKSSLRKENPQEFYEIFANWLKKDFVGNLFKNDFVFLNGKLVAWRFHYFQKNVDDSEISSKWLKACKQITKLENHNVQMVCFHLSSIFNETDESIIEVTLINLGITILTILVVTAYIIKGFYSCVIIALIIFLIDLCIFGFMCLCGITMNIISMVILVLSVGFSIDHTSHIVQAFSHSMGRTRDEKMKESLHLMIGPVLHSGLSTWFVISTLFFSNKDFTVIFFQTLSLVLFFSITFSSMFLPVLLSSFGPLH
modifications: N-acetylglucosamine on N165 and N294
